Experimental data reported in patent US5225528A (priority 1990, dated 1993).

Legend:
[1] = general procedure: Boc solid-phase peptide synthesis; Boc-L-Pro-O-(PAM)-resin; BOP reagent/DIEA for some couplings; acid chloride coupling; settings: whole synthesis
[2] = general procedure: Boc solid-phase peptide synthesis; Boc-L-Pro-O-(PAM)-resin; chloromethylated resin (Merrifield resin); BOP reagent/DIEA for some couplings; acid chloride coupling
[3] = general procedure: Boc solid-phase peptide synthesis; Boc-D-Trp-O-(Merrifield)-resin; BOP reagent/DIEA for some couplings; acid chloride coupling; settings: whole synthesis, scale 1 mmole, head-to-tail ring
[4] = general procedure: Boc solid-phase peptide synthesis; Boc-L-Pro-PAM-resin; BOP reagent/DIEA for some couplings; acid chloride coupling; settings: whole synthesis, 214 nM, head-to-tail ring
[5] = general procedure: Boc solid-phase peptide synthesis; Boc-L-Pro-(Merrifield)-resin; BOP reagent/DIEA for some couplings; acid chloride coupling; settings: whole synthesis, 214 nM, head-to-tail ring
[6] = general procedure: Boc solid-phase peptide synthesis; Boc-Pro-O-(PAM)-resin; BOP reagent/DIEA for some couplings; acid chloride coupling; settings: whole synthesis, scale 1 mmole, head-to-tail ring
[7] = scale 0.5 mmole, head-to-tail ring
[8] = whole synthesis, HPLC Method G, scale of the general procedure 1 mmole, head-to-tail ring
[9] = scale 1 mmole, head-to-tail ring
[10] = whole synthesis, HPLC (Method G), scale of the general procedure 1 mmole
[11] = whole synthesis, scale of the general procedure 1 mmole
[12] = late stage modification step, HPLC (Method G)

C-[D-(O-t-Butyl)Tyrosiniyl-L-isoleucyl-D-pipecolyl-L(N-t-butyloxycarbonyl)lysyl-D-(N-methyl)phenylalanyl-L-prolyl]
isolated mass [1, 7]: 700 mg | isolated yield [1, 7]: 73% | final HPLC purity [2, 8]: 99%

c-[D-Phenylalanyl-L-phenylalanyl-D-pipecolyl-L-pipecolyl-D-(N-methyl)phenylalanyl-L-prolyl]
isolated mass [1, 9]: 348 mg | isolated yield [1, 9]: 45% | final HPLC purity [2, 8]: 95%

Cyclo[D-Trp-L-Ile-D-Pip-L-Pip-D-(N^α Me-O-Bzl)-Tyr-L-Pro]
isolated mass ([1]; scale 1 mmole): 350 mg | final HPLC purity [2, 10]: 99% | isolated yield [2, 11]: 35%

c-[D-Tryptophanyl-L-isoleucyl-D-pipecolyl-L-pipecolyl-D-histidyl-3,4-dehydroprolyl]
isolated mass [3]: 301 mg | isolated yield [3]: 40% | final HPLC purity [2, 8]: 99%

c-[D-Tryptophanyl-L-phenylalanyl-D-pipecolyl-L-pipecolyl-D-(N-methyl)phenylalanyl-prolyl]
isolated mass [1, 9]: 611 mg | isolated yield [1, 9]: 75% | final HPLC purity [2, 8]: 99%

c-[D-2-Trytophanyl-L-isoleucinyl-D-pipecolyl-L-piperazin-2-yl-(4-Cbz)-D-histidinyl(BOM)-L-prolyl]
final HPLC purity [4]: >96% pure

c-[D-Tryptophanyl-L-isoleucinyl-D-pipecolyl-L-pipecolyl-D-(β-t-butyl)aspartyl-L-prolyl]
final HPLC purity [5]: >95% pure

c-[D-Phenylalanyl-L-homophenylalanyl-D-pipecolyl-L-pipecolyl-D-(N-methyl)phenylalanyl-L-prolyl]
isolated mass [1, 9]: 340 mg | isolated yield [1, 9]: 43% | final HPLC purity [2, 8]: 95%

C-[D-(O-Benzyl)-tyrosinyl-L-isoleucyl-D-pipecolyl-L-(N-t-butyloxycarbonyl)lysyl-D-(N-methyl)phenylalanyl-L-prolyl]
isolated mass [1, 9]: 700 mg | isolated yield [1, 9]: 73% | final HPLC purity [2, 8]: 99%

C-[D-1-Napthylalanyl-L-isoleucyl-D-pipecolyl-L-(N-t-butyloxycarbonyl)lysyl- D-(N-methyl)phenylalanyl-L-prolyl]
isolated mass [6]: 350 mg | isolated yield [6]: 77% | final HPLC purity [2, 8]: 99%

c-[D-2-Naphthylalanyl-L-isoleucyl-D-pipecolyl-L-(N-t-butyloxycarbonyl)lysyl-D-(N-methyl)phenylalanyl-L-prolyl]
isolated mass [1, 9]: 300 mg | isolated yield [1, 9]: 66% | final HPLC purity [2, 8]: 99%

c-[D-Phenylalanyl-L-isoleucinyl-D-pipecolyl-L-pipecolyl-D-(β-t-butyl)aspartyl-L-prolyl]
final HPLC purity [5]: >98% pure

c-[D-Tryptophanyl-L-homophenylalanyl-D-pipecolyl-L-pipecolyl-D-(N-methyl)phenylalanyl-prolyl]
isolated mass [1, 9]: 520 mg | isolated yield [1, 9]: 63% | final HPLC purity [2, 8]: 99%

PEPTIDE1{[dF].I.[D-Pip].[Dap].[D-NMePhe].P}$PEPTIDE1,PEPTIDE1,1:R1-6:R2$$$V2.0
final HPLC purity [2, 12]: 99.7% pure

PEPTIDE1{[dF].I.[D-Orn].[L-Pip].[D-NMePhe].P}$PEPTIDE1,PEPTIDE1,1:R1-6:R2$$$V2.0
final HPLC purity [2, 12]: 99.4% pure

Cyclo[D-His-L-Ile-D-Pip-L-Pip-D-(N^α Me)Phe-L-Pro]
final HPLC purity [2, 10]: 99% | isolated mass ([2]; whole synthesis, scale 1 mmole): 242 mg | isolated yield [2, 11]: 26%

For some assays here: HELM strings list residues between dots; [ac] is acetyl, [am] amide, other brackets name non-standard units.
